Reference: PubChem BioAssay AID1508600 (Functional Genomics Laboratory (NCATS/FGL), 2020)
Out of some 53,000 sequences screened, about 3,700 (7%) were called active.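 How the source made its calls: active means gene knockdowns whose robust z-score for IL-1 alpha signal is at least 2 or at most -2, so actives lie on both sides; inactive means the rest.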 This is one part of the list.

Experiment: Components of the Cytosolic LPS Sensing Pathway: Gene Identification via Genome-wide siRNA Screen;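 further: robust z of the log signal after scaling to non-targeting control siRNA wells of the plate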
Settings: RAW264.7 macrophages, IL-1a HTRF, actives lie on both sides, screened at 100 nM (by protocol), cells primed 5 h with Pam3CSK4 first
Procedure, shortened: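 RAW264.7 mouse macrophages reverse-transfected with single siRNAs (100 nM final) for 48h, primed with Pam3CSK4 for 5 hours, then transfected with LipidA for 24 hour. Supernatant IL-1a read by HTRF; values normalized to negative-control median, log-transformed robust z-scores.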

z-score, active:
GGCCUUUAUUCAGAUGUCATT against Zscan12 -2.79
GGCGGAUACUUGAUCGAAATT against Exoc3 2.41
CCGUUUUGUCUGAAUUCCCTT against 4930515G01Rik -2.14
GGUCUCUGUUGCUUUGACUTT against Tgoln1 4.13
GCAAUUACAGGAGGAAUUATT against Orc3 2.86
GGUGCUUAUACUUCUUUGUTT against Sgcz -2.42

z-score, inactive:
CGACAAACUACAUAGCAGATT against Brms1 0.823
GGAAUGGAAUAGAUGCUCATT against Vmn2r-ps105 -0.514
GGACUGGUUUGACUUUAAATT against Oasl1 -0.494
GCCACUCGAUAAUGAGUGGTT against Cmtr2 0.641
GGCUCAGCACUUUCCUAAUTT against Ifnab -0.327
GGCUGUAGUUCUCACUGUGTT against Olfr902 -1.66
CGAUGUCAUCUUAGCUACGTT against B4gat1 -0.563
GGCAACAAAUGCUGUGUAATT against 2610301B20Rik -1.94
GGCGGAUGACCUAGAGGAUTT against Ddx60 1.19
CGACAUAUCCUUCUUUUCUTT against Ppic 0.552
GCUUGCUCACUCUAGUACUTT against Olfr937 0.528
CGGUCUUCAAGCUCCCUCATT against Olfr243 -1.82
GGCACUGGUUGCCAUAAAATT against Stk-ps2 -0.203
CCAAGUAUGCUAGCAUGAUTT against Ndufa3 -0.998
GGUACACAGUCAUAAUGAGTT against Olfr975 -1.61
GGACAUCCAGACCAAUGUCTT against Psmd8 1.1
GCAAUGAACAAAUUUGGUGTT against Naa15 0.102
GGAUGGAGAUUAUGAAGAGTT against Pcsk9 -0.248
GGACAUGAAGCAAGACCAATT against Shfl 0.98
GAAGAGACCUUCACAAAGUTT against Hnrnpll -1.52
GGUUGUAAAGAUGAGAAAATT against Srfbp1 -0.0426
GGUGCUCCCUGCAUACUAUTT against Ngp 1.34
GGAAAGUUGUGAACUCUAATT against Olfr1157 0.583
GGAUAGUCCAAAGUUUUGUTT against Zfp740 1.24
GCCAGAGUUUAUUAACUGCTT against Stxbp6 -0.809
GCUGCUGUGGUUCUAGUUGTT against Krtap4-2 0.574
CCUUAUUCUGGAAUACCUGTT against Noc2l 0.622
CGAAGUCAAGCAGAAAAGATT against C1qtnf1 -0.892
CGAUUUAAAGUAGUAGUGGTT against Dusp28 -1.13
GGAAUGCAUCACAAAACUUTT against Lancl2 0.24
GGCUAAGACCAAAACUUUATT against Cyp4f13 0.772
GCCAUCUACUUUGUUAUAGTT against Kcnk4 0.725
CGCGUUGACAUACAUAAAATT against Coq5 -0.102
GCACUUGUGACUAUAAAGUTT against Celf2 0.262
GGACAAGGCUGCUACUUCATT against Pou6f2 1.74
GGAUCACUUUGACCACAACTT against Rab31 1.43
GGAAAGAAGCCAAAGAAAUTT against Spata4 -1.32
GCUUGCUCAGGGAUUUUUATT against Rb1cc1 1.35
CCCGAGAAUACACCAUCAATT against Rpl31 0.347
ACUGGCCGGGAUUACAGAUTT against Ang3 0.566
GGACUUCCAGAGCUGUUUUTT against Sinhcaf -1.29
GGACCAGAGGAAGAUUCCCTT against 1700020D05Rik 0.469
GGGUGUAACUGUGAGAUAATT against Kmt5a 0.265
CCACGUUGUCAUAAUAAACTT against Mrpl13 0.688
GGCAAUGCUAGGUGAGGAATT against Olfr157 -0.215
GGCUCCUUUCGAAAGUAAATT against BC051142 0.467
CCGUGUCUUCCAUAUUGGUTT against Trip6 -0.247
CGGAGCUGUUGGUAAAACCTT against Rac1 -0.0361
GGAAGAAAAACUUGUCUCCTT against Copa 0.25
GGCUGUGUCAUCACCAUCUTT against Acot7 -1.31
GGACAGUUUGGUACCAGUGTT against Lime1 0.0297
GGUAUACAUGCUUCUCUCUTT against Olfr610 -0.569
GCAAUAUACACCAUAUUGGTT against Panx3 0.544
GGAAAGGAUAAAGUAUAUCTT against Aspm -0.0167
CGAAACUAGGAUUGAGGAGTT against Ece1 -0.488
CGAUUCUGCUACCUAUAGATT against 2810408A11Rik 0.62
GGAAAAAAAGGUGAAAACCTT against Ttc16 1.73
GCCACAAACCAAUGGUUUGTT against B230219D22Rik 0.121
CCUUUGAGCCAGUUAUUUATT against Slc25a27 0.366
GGAAGUGCUGUUCUUGGGCTT against Smug1 -0.0427
GCAUUAGGUAUUACUACCUTT against Fate1 -0.00485
CCGAAAUUUUGAGUACUGUTT against Vmn1r67 0.285
GGUAUUCAGUAAUACAGUUTT against Igf2bp3 1.04
GGUUUUCACGUGCUGCUGATT against Chd1l -1.2
GGUGUUGUUCCCUGUAAUATT against Serinc1 0.995
GCGGAGUGUGAAACACUGATT against Ccdc32 0.842
GCCAGUUUGCUGAUGGUUGTT against Tmem14c 0.155
GGACAUAUUUCCAACAUGUTT against Mob3b -1.34
GGCAGGACGAACAUGGCUATT against Hspb1 1.2
GGAAUGAACAUCAUUGUUUTT against Sms 0.991
GGAGUUGAGGGUCUCAUUCTT against Nphp1 -1.72
GGGCAUUGAUCACAGUGUATT against Bcl3 -1.94
GGAUAUCUGAGACAGGUUUTT against Arf4 -1.71
CCAUGAGUUCAGAUGAUGATT against Ints10 -1.11
CCAUCACCGAAGCAUUAAATT against Lypd9 -0.553
GGAGAAGCUCUUAAAGAAATT against Traf3ip3 0.959
CAACAUCUAAACCCAAGAGTT against 1700010D01Rik -1.1
GAGAACAAGCCUAAGCCCATT against V1rb5 1.44
CCACAUAUUUAUCUCCCUGTT against Mrpl33 0.553
CCUGCUCUCCUCAUUAUGUTT against Rnls -0.115
CCUUCAUUGUGAUUGACAUTT against Ptpn11 -0.55
GGUCAUGCUGAUCAGCGACTT against Itfg2 -0.564
GCUUCUAAGCCGAAGGCCATT against H1f3 0.274
GGACAGAUCUUUUUGGUUUTT against Olfr295 -1.17
GGAAGAUGAGGACACCAUGTT against Eva1b -1.83
CCGGCACUAUGAGAAGAAGTT against Lims2 0.919
GGAACUAACAUCACACCGATT against Ifnz 0.811
GCUAUGUCAUAGUUCAGCCTT against Khdc3 -0.154
GCCCAGUGAUUGGAAACGATT against Tbc1d2b 0.123
GGAGAGAGAAUUUCACCUCTT against Dcaf12 -0.572
GCUUUAAGGCUUACACAGATT against Klrk1 0.414
GCUCAAAAUAACAAGAAGGTT against Ercc5 -0.201
GGCUCUUAUUGCCCUAACCTT against Hypk -1.92
GGUAUGAGUGAAGAAAAGATT against Ifi205 -1.36
GCUCAUACUCCGAAACCUGTT against Etv1 -0.0309
GCUUGUACCUGUGGAUCGATT against Wif1 0.827
GCAAGGGCUUUAACUAAGUTT against Wnt2 0.589
GGCUUUGGAAUAUACCGAGTT against Ttc23 -0.0628
GGAAAAUUCUUCCAACAUCTT against Fsd1l -0.249
GGACAUCUCCUCAAUCAUCTT against Gdf10 -0.148

4 records picked at random from the list so far, as already listed:
z-score, inactive:
GCUUGCUCAGGGAUUUUUATT against Rb1cc1 1.35
CGACAUAUCCUUCUUUUCUTT against Ppic 0.552
CCGAAAUUUUGAGUACUGUTT against Vmn1r67 0.285
GGACUUCCAGAGCUGUUUUTT against Sinhcaf -1.29

A section of the results above, as a working copy:
z-score, inactive:
CGGAGCUGUUGGUAAAACCTT against Rac1 -0.0361
GGAAGAAAAACUUGUCUCCTT against Copa 0.25
GGCUGUGUCAUCACCAUCUTT against Acot7 -1.31
